This data set deals with U87-MG cells. The experiment in a line: Cellular thermal shift assay (CETSA) with TMT LC-MS/MS. The class given is cell-based, human.

On to `Cn1cnnc1S/C=C/C(=O)c1ccc(F)cc1` [Y102], for which the “proteins with a statistically significant difference of melting points versus DMSO (ΔTm)” value (2 μM, 2 h, p-value<0.100) stood at 19. The “potential targets identified on comparison of the two proteomics approaches” value (CETSA and click chemistry-enriched pulldown) is “the BORC complex, determined by the identification of two subunits BORCS6 and BORCS7, and the cell cycle regulator CDKN1A/p21”.

(Values after patent publication US20220326218A1, “COMPOSITION AND METHOD FOR INHIBITING BORC COMPLEX TO TREAT CANCERS WITH NF1 DEFICIENCY AND DYSREGULATED RAS SIGNALING” (THE TRUSTEES OF DARTMOUTH COLLEGE, priority 2019, published 2022).)
